We go through 1 substance from paper PMC6450910.

Amino acid sequences for entries named in this document (tags omitted). A change or cut given only in a name is not applied to a line headed by its entry.
UniProt P34741: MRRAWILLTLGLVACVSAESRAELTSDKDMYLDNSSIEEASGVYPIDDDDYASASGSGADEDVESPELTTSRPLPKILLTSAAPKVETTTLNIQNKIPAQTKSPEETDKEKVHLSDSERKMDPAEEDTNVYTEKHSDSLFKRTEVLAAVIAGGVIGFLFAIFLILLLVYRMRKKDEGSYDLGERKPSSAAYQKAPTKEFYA
UniProt O08992: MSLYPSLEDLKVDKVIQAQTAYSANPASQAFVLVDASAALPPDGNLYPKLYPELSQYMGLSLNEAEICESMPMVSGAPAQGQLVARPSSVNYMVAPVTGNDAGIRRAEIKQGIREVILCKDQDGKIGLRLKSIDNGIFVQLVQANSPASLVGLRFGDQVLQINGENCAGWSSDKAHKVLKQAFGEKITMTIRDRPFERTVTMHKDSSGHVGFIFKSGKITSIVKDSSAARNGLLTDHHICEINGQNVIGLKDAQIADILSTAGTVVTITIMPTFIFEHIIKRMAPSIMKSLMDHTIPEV

These are yes or no findings as the source states them, for the method shown. In cells and extracts the contact can be indirect. Binding calls can cover weak binding; strength is not graded here.

This assay concerns the target HA-tagged Sdc2 mutant devoid of its GAG chains (Ad-Sdc2^ΔGAG) (UniProt P34741). Kind of assay: co-IP; Sdc2-/- primary mouse ECs transduced 16 h with adenovirus (MOI 1-2), starved 8 h, stimulated with VEGFA165 (50 ng/ml) 5 min; 1% Triton lysis buffer; anti-HA magnetic beads 2 h at 4 °C; western blot. For orientation: In western blotting, separated proteins are transferred to a membrane and probed.

As for “syntenin (mouse, endogenous) (from UniProt O08992 1-299)”, the binding entry is reported as “binds”.
